The list does not hold the whole screen: it is rich in T/C values a quarter to a half above the control, in often repeated tests (any T/C) and in doses without a T/C. Other doses and runs of a compound stand elsewhere. T/C is the treated group as % of the vehicle group. Some entries give survivors of the animals treated and no T/C: the source files T/C as zero there, which appears to mark a toxic dose or a test without result, not a measured value. Some doses without a T/C left all or most animals alive at the check, yet need not have been tolerated: survival well below the control is almost never listed, so the zero probably covers shortened survival too. Counts of survivors are from the toxicity check (mostly the fifth day) where no day follows; animals may have died later. Schedules are NCI's codes, taken here to give the interval after Q, in days (D) or hours (H), and the number of doses after X. Some entries hold several experiments; the results are listed from low to high. For survival time, this PubChem deposit counts one and a half times the control or more as active, and values a quarter to a half above the control carry no call in these data; other NCI protocols may use other cut-offs.

The assay relates to P388 leukemia ip, CD2F1 mice, survival T/C. As to the kind of experiment: NCI In Vivo Anticancer Drug Screen. Data for tumor model P388 Leukemia (intraperitoneal) in CD2F1 (CDF1) mice. The settings on record: T/C endpoint: median survival time, higher T/C = longer survival.
Setting [1] is: dose: 50.0 mg/kg/injection, schedule: Q01DX009 (ip), vehicle: saline with Tween-80.
Setting [2] is: dose: 60.0 mg/kg/injection, schedule: Q01DX005 (ip), vehicle: saline with Tween-80.
Setting [3] is: dose: 240.0 mg/kg/injection, schedule: Q01DX005 (ip), vehicle: Klucel (hydroxypropylcellulose) (HPC).
Where [4] appears, read: dose: 200.0 mg/kg/injection, schedule: Q01DX009 (ip), vehicle: saline with Tween-80.
Setting [5] is: dose: 240.0 mg/kg/injection, schedule: Q01DX005 (ip), vehicle: saline with Tween-80.
Where [6] appears, read: dose: 100.0 mg/kg/injection, schedule: Q01DX009 (ip), vehicle: water.
Setting [7] is: dose: 400.0 mg/kg/injection, schedule: Q04DX003 (ip), vehicle: saline with Tween-80.
Where [8] appears, read: dose: 100.0 mg/kg/injection, schedule: Q01DX009 (ip), vehicle: saline with Tween-80.
Where [9] appears, read: dose: 200.0 mg/kg/injection, schedule: Q04DX003 (ip), vehicle: water.

Regarding `CCCCCCCCCCCCCCCC(=O)NCCN(CC)CC`, the survivor count under setting [1] is 5 of 6.
In the case of `COc1ccc(C(=O)/C=C/c2c[nH]c3ccccc23)c(O)c1`, the survivor count under setting [2] is given as 6 of 6.
Turning to `CCn1c(O)c(N=O)c(=O)n(CC)c1=S`, where the note is “dose: 200.0 mg/kg/injection, schedule: Q04DX002 (ip), vehicle: saline with Tween-80”, the survivor count is reported as 1 of 6.
With `N#CC(Br)(Br)C(=O)c1nc(N)nc(N)n1`, the survivor count reads like this: (dose: 50.0 mg/kg/injection, schedule: Q01DX005 (ip), vehicle: saline with Tween-80) 0 of 6; (dose: 100.0 mg/kg/injection, schedule: Q01DX005 (ip), vehicle: saline with Tween-80) 0 of 6; (dose: 200.0 mg/kg/injection, schedule: Q01DX005 (ip), vehicle: saline with Tween-80) 0 of 6.
As for `CCC/C(=N\NC(N)=NC)c1ccc2c(c1)Cc1cc(/C(CCC)=N/NC(N)=NC)ccc1-2`, the survivor count (dose: 12.5 mg/kg/injection, schedule: Q04DX002 (ip), vehicle: saline with Tween-80) was 0 of 6.
Consider `CC1(C)CC2CCCCN2CO1` (centres undefined), for which the survivor count (dose: 200.0 mg/kg/injection, schedule: Q01DX005 (ip), vehicle: saline) is on record as 0 of 6.
On to `Cc1cc(OC2OC(CO)C(O)C(O)C2O)ccc1O` (centres undefined), for which the survivor count (dose: 100.0 mg/kg/injection, schedule: Q01DX009 (ip), vehicle: Klucel (hydroxypropylcellulose) (HPC)) was 6 of 6.
As to `CCOC(=O)NC(=N/C(=C/c1cccc(C)n1)c1ccccc1)c1ccccc1`, the survivor count under setting [3] was 6 of 6.
As to `O=C(CC(=O)C(F)(F)F)c1cc2ccccc2s1`, the survivor count under setting [4] was 0 of 6.
In the case of `COc1ccc(CN)cc1OC`, the survivor count by setting is: (dose: 400.0 mg/kg/injection, schedule: Q01DX009 (ip), vehicle: saline) 4 of 6; (dose: 600.0 mg/kg/injection, schedule: Q01DX009 (ip), vehicle: saline) 0 of 6.
For the molecule `COc1ccc(C(C#N)C(=O)C(=O)Nc2ccc(C)cc2C)cc1OC` (centres undefined), the survivor count under setting [5] is 0 of 6.
For `CN=NN/C1=C/CCCCCC1`, the survivor count (dose: 120.0 mg/kg/injection, schedule: Q01DX005 (ip), vehicle: Klucel + Tween-80) is recorded as 3 of 6 and the survivor count (dose: 240.0 mg/kg/injection, schedule: Q01DX005 (ip), vehicle: Klucel + Tween-80) is given as 0 of 6.
On to `CC1(C)OC(=O)N=C1c1ccc(Cl)cc1`, for which the survivor count under setting [3] is given as 0 of 6.
Regarding `O=C/C=C/c1ccc([N+](=O)[O-])cc1Cl`, the survivor count under setting [4] was 6 of 6 and the survivor count (dose: 400.0 mg/kg/injection, schedule: Q01DX009 (ip), vehicle: saline with Tween-80) was 6 of 6.
Regarding `C=CCN(CC=C)P(=O)(N1CC1)N1CC1C` (centres undefined), the T/C is, setting by setting: (dose: 0.27 mg/kg/injection, schedule: Q01DX009 (ip), vehicle: saline) 133 % of control; (dose: 0.4 mg/kg/injection, schedule: Q01DX009 (ip), vehicle: saline) 149 % of control.
`CCN(CC)CCSc1cc(C)c2ccc(N)nc2n1`: the survivor count under setting [3] was 0 of 6.
For `Cc1cccc(-[n+]2noc(N)n2)c1`, the survivor count under setting [6] is on record as 5 of 6.
With `Cc1c(O)c2c(c(O)c1Cc1cccc(CN)c1)C(=O)c1ccccc1C2=O`, the survivor count reads like this: (dose: 3.13 mg/kg/injection, schedule: Q01DX009 (ip), vehicle: water) 6 of 6; (dose: 6.25 mg/kg/injection, schedule: Q01DX009 (ip), vehicle: water) 6 of 6; (dose: 12.5 mg/kg/injection, schedule: Q01DX009 (ip), vehicle: water) 6 of 6; (dose: 25.0 mg/kg/injection, schedule: Q01DX009 (ip), vehicle: water) 6 of 6; (dose: 50.0 mg/kg/injection, schedule: Q01DX009 (ip), vehicle: water) 6 of 6; under setting [6], 1 of 6. Further, the survivor count reads like this: (dose: 200.0 mg/kg/injection, schedule: Q01DX009 (ip), vehicle: water) 0 of 6; (dose: 400.0 mg/kg/injection, schedule: Q01DX009 (ip), vehicle: water) 0 of 6.
Turning to `CCCCCCCCCCCC(=O)N(CCO)CCc1ccccc1`, the T/C (dose: 100.0 mg/kg/injection, schedule: Q01DX009 (ip), vehicle: saline) was 125 % of control.
In the case of `[Cl][Pt+2][Cl].[NH-]CCC[NH-]`, the survivor count (dose: 25.0 mg/kg/injection, schedule: Q04DX002 (ip), vehicle: saline) is on record as 0 of 6.
For the molecule `CN(C)c1ccc2c(c1)Cc1cc(N=C3C=CC(=O)O3)ccc1-2`, the survivor count under setting [7] is 2 of 6.
Consider `O=C1CC(c2ccccc2)Oc2cc(O)cc(O)c21` (centres undefined), for which the survivor count is 6 of 6 (dose: 50.0 mg/kg/injection, schedule: Q01DX009 (ip), vehicle: Klucel (hydroxypropylcellulose) (HPC)) and 3 of 6 (dose: 100.0 mg/kg/injection, schedule: Q01DX009 (ip), vehicle: other).
For the molecule `CN(C)c1n[nH]c(N)n1`, where the note is “dose: 200.0 mg/kg/injection, schedule: Q01DX009 (ip), vehicle: saline”, the survivor count is listed as 6 of 6.
As to `N#Cc1c(C(=O)NN)c2c(-c3ccccc3)n[nH]c(=O)c2[nH]c1=O`, the survivor count (dose: 400.0 mg/kg/injection, schedule: Q01DX001 (ip), vehicle: saline with Tween-80) was 6 of 6.
In the case of `N#CC(=C1C=CC(=NO)C=C1)c1ccccc1`, the T/C is 125 % of control under setting [1] and 125 % of control under setting [8].
For the molecule `CC(C)COP(=O)(OCC(C)C)OCC(C)C`, under setting [8], the survivor count was 3 of 6.
Turning to `Cc1cc(=O)c2c(ccc3c(=O)cc(C)[nH]c32)[nH]1`, the survivor count is recorded as 3 of 6 under setting [2] and 3 of 6 under setting [5].
Regarding `COc1ccc2cc3n(cc-2c1=O)CCc1cc2c(cc1-3)OCO2`, the T/C reads like this: (dose: 25.0 mg/kg/injection, schedule: Q04DX003 (ip), vehicle: water) 132 % of control; (dose: 50.0 mg/kg/injection, schedule: Q04DX003 (ip), vehicle: water) 135 and 141 % of control; (dose: 100.0 mg/kg/injection, schedule: Q04DX003 (ip), vehicle: water) 141 % of control; under setting [9], 149 % of control. For the same molecule, the survivor count was 0 of 6 under setting [9]; 0 of 4 and 0 of 6 (dose: 400.0 mg/kg/injection, schedule: Q04DX003 (ip), vehicle: water).
`CN(C)N=Nc1cccc(C(F)(F)F)c1`: the T/C by setting is: (dose: 100.0 mg/kg/injection, schedule: Q01DX007 (ip), vehicle: saline) 128 % of control; (dose: 200.0 mg/kg/injection, schedule: Q01DX007 (ip), vehicle: saline) 139 % of control. In addition, the survivor count is, setting by setting: (dose: 200.0 mg/kg/injection, schedule: Q01DX008 (ip), vehicle: saline with Tween-80) 3 of 6; (dose: 400.0 mg/kg/injection, schedule: Q01DX007 (ip), vehicle: saline) 5 of 6.
For the molecule `Cn1ncc2c(N)ncnc21`, the survivor count by setting is: under setting [8], 6 of 6; under setting [4], 1 of 6; under setting [7], 1 of 6.
With `Cn1c(=O)c2[nH]c(CN(CCCl)CCCl)nc2n(C)c1=O`, the T/C was 127 % of control (dose: 1.5 mg/kg/injection, schedule: Q01DX009 (ip), vehicle: saline with Tween-80); 143 % of control (dose: 2.25 mg/kg/injection, schedule: Q01DX009 (ip), vehicle: saline with Tween-80); 127 % of control (dose: 2.66 mg/kg/injection, schedule: Q04DX003 (ip), vehicle: saline with Tween-80); 131 % of control (dose: 4.0 mg/kg/injection, schedule: Q04DX003 (ip), vehicle: saline with Tween-80); 140 % of control (dose: 4.4 mg/kg/injection, schedule: Q04DX003 (ip), vehicle: saline with Tween-80); 140 % of control (dose: 6.0 mg/kg/injection, schedule: Q04DX003 (ip), vehicle: saline with Tween-80). Further, the T/C (dose: 15.0 mg/kg/injection, schedule: Q04DX003 (ip), vehicle: saline with Tween-80) was 145 % of control. For the same molecule, under setting [1], the survivor count is reported as 4 of 6.

Source of the values: PubChem BioAssay AID330 (DTP/NCI, 2004).
